Assay results published in patent US20170044264A1.
Results are given in words; binding and its absence hold for the method and conditions named. Some entries that bind do so weakly or less than the wild type.

Sequences of proteins named here, by UniProt entry; tags and fusion partners are left off. A change or cut given only in a name is not applied to a line headed by its entry.
UniProt P48023: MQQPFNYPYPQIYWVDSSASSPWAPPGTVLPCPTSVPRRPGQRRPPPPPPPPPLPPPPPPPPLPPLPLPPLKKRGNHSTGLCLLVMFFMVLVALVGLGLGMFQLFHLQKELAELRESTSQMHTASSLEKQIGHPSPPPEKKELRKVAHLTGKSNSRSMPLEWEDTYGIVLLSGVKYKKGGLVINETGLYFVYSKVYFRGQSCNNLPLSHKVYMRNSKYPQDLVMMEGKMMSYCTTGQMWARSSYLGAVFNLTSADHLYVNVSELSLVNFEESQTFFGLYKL

What was measured:
human CD95L (human) [1] = target: human CD95L (human) (UniProt P48023); assay: IHC on CD95L-positive and CD95L-negative glioblastoma sections
[2] = target: T1, synthetic N-terminal peptide encoding the first 21 aa of human CD95L (CD95L_NT 1-21) (human); assay: ELISA on immobilised CD95L-NT_1-21 peptide; confirmed by competition with the specific peptide
T1 sequence (peptide): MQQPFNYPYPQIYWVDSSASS

human CD95L (human) [3] = target: human CD95L (human) (UniProt P48023); assay: IHC-based screening
human CD95L (human) [4] = target: human CD95L (human) (UniProt P48023); assay: IHC on human tonsil sections (subset of plasma cells)
human CD95L (human) [5] = target: human CD95L (human) (UniProt P48023); assay: IHC on human tonsil sections, with and without competing peptide CD95L-NT_1-21

Measured: binding

B1: recombinant anti-CD95L rabbit monoclonal antibody (APG1181) (antibody, V domains shown)
VH: QEQLEESGGDLVKPGASLTLTCTASGFSFSSSAWICWVRQAPGKGLEWIACIFTGNSDITIYANWAKGRSTISRTSSTTVTLQVTSLTAADTATYFCARNLAATKLWGPGTLVTVSS
VL: LVMTQTPASVSAAVGGTVTISCQASQSITDQLSWYQHQPGQPPKLLIYRASTLASGVPSRFSGSGSETEFSLTISGLQCADAATYYCLGVHGYSSDDAISFGGGTEVVVKG
binds: human CD95L (human) [1] | [2]

B2: anti-CD95L rabbit monoclonal antibody purified from the supernatant of rabbit hybridoma clone 24-8 (antibody, V domains shown)
VH: B1 VH
VL: B1 VL
binds: all assays above
